According to patent US11542257B2, “Arylnaphthalene compounds as vacuolar-ATPase inhibitors and the use thereof” (priority 2018, dated 2023):

Assays:
[1] = test system: endosomal acidification in A549 cells; assay: Inhibition of cellular endosomal acidification, acridine orange (AO), A549 cells; type: cell-based; details: cytotoxicity CC50 vs endosomal acidification IC50
[2] = test system: endosomal acidification in HEK293 cells; type: cell-based

Compound | A549 SI [1] | fold less potent in HEK 293 cells than in A549 cells (endosomal acidification) [2] | fold less potent than diphyllin (endosomal acidification) [2] [fold]
COc1cc2c(O)c3c(c(-c4ccc5c(c4)OCO5)c2cc1OC)C(=O)OC3 [Compound 2a, 9-(benzo[d][1,3]dioxol-5-yl)-4-hydroxy-6,7-dimethoxynaphtho[2,3-c]furan-1(3H)-one, reference compound] | 336 |  | 
COc1cc2c(OC)c3c(c(-c4ccc5c(c4)OCO5)c2cc1OC)C(=O)OC3 [Compound 2b, 9-(benzo[d][1,3]dioxol-5-yl)-4,6,7-trimethoxynaphtho[2,3-c]furan-1(3H)-one] | >1720 | roughly 4 fold | 
CCOc1c2c(c(-c3ccc4c(c3)OCO4)c3cc(OC)c(OC)cc13)C(=O)OC2 [Compound 2c, 9-(benzo[d][1,3]dioxol-5-yl)-4-ethoxy-6,7-dimethoxynaphtho[2,3-c]furan-1(3H)-one] | >1480 | roughly 4 fold | 
C#CCCCOc1c2c(c(-c3ccc4c(c3)OCO4)c3cc(OC)c(OC)cc13)C(=O)OC2 [Compound 2e, 9-(benzo[d][1,3]dioxol-5-yl)-6,7-dimethoxy-4-(pent-4-yn-1-yloxy)naphtho[2,3-c]furan-1(3H)-one] | >1180 |  | 
COc1cc2c(OCCCN3CCOCC3)c3c(c(-c4ccc5c(c4)OCO5)c2cc1OC)C(=O)OC3 [Compound 2g, 9-(benzo[d][1,3]dioxol-5-yl)-6,7-dimethoxy-4-(3-morpholinopropoxy)naphtho[2,3-c]furan-1(3H)-one] | >1780 |  | 
CCOC(=O)CN1CCN(CCCOc2c3c(c(-c4ccc5c(c4)OCO5)c4cc(OC)c(OC)cc24)C(=O)OC3)CC1 [Compound 2h, ethyl 2-(4-(3-((9-(benzo[d][1,3]dioxol-5-yl)-6,7-dimethoxy-1-oxo-1,3-dihydronaphtho[2,3-c]furan-4-yl)oxy)propyl)piperazin-1-yl)acetate] | >990 |  | 
COc1cc2c(O)c3c(c(-c4ccc5c(c4)OCO5)c2cc1OC)C(=O)N(N)C3 [Compound 3a, 2-amino-9-(benzo[d][1,3]dioxol-5-yl)-4-hydroxy-6,7-dimethoxy-2,3-dihydro-1H-benzo[f]isoindol-1-one] | 3.40 |  | 18
COc1cc2c(O)c3c(c(-c4ccc5c(c4)OCO5)c2cc1OC)C(=O)N(/N=C/c1cccnc1)C3 [Compound 3c, (E)-9-(benzo[d][1,3]dioxol-5-yl)-4-hydroxy-6,7-dimethoxy-2-((pyridin-3-ylmethylene)amino)-2,3-dihydro-1H-benzo[f]isoindol-1-one] | 4.32 |  | 18
COc1cc2c(O)c3c(c(-c4ccc5c(c4)OCO5)c2cc1OC)C(=O)N(/N=C/c1ccc(Cl)cc1)C3 [Compound 3d, (E)-9-(benzo[d][1,3]dioxol-5-yl)-2-((4-chlorobenzylidene)amino)-4-hydroxy-6,7-dimethoxy-2,3-dihydro-1H-benzo[f]isoindol-1-one] | 9.24 |  | 18
